This passage reports binding results from US20110085986A1, “Diagnosis and treatment of epithelial cancers using labeled/conjugated progastrin peptides” (priority 2009, published 2011).

Chains of the proteins cited; added tags and fusions are not shown. Residues count along the entry.
UniProt P07355, residues 2-339: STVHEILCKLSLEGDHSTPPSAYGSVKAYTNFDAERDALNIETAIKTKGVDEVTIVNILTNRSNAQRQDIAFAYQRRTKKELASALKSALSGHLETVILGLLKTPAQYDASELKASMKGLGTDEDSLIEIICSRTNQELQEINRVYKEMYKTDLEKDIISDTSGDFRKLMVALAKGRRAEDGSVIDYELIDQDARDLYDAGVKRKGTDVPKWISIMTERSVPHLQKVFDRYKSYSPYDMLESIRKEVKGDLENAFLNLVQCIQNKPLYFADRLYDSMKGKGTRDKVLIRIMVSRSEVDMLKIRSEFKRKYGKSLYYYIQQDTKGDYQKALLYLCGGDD

This test deals with Annexin A2 in HEK-293 cells (UniProt P07355). Kind of test: fluorescence microscopy co-localization in cells (FIG. 7).

Results are given in words; binding and its absence hold for the method and conditions named. Some entries that bind do so weakly or less than the wild type.

B1: Fluorescein isothiocyanate (FITC) labeled PG26 peptide (peptide)
peptide: QGPWLEEEEEAYGWMDFGRRSAEDEN
modifications: FITC at the N-terminal end
In the case of B1, the binding result was “binds”.
